Test results reported in patent US20140220596A1 (MEDICINAL BIOCONVERGENCE RESEARCH CENTER, published 2014).

Key:
[1] = target: T1, Fc-fused soluble cadherin-6 (extracellular domain of CDH6 fused to the Fc fragment of human IgG1) (human) (UniProt P55285); assay: ELISA, His-GRS coated on the plate, Fc-cadherin added, anti-human IgG1 Fc-HRP detection
T1 sequence: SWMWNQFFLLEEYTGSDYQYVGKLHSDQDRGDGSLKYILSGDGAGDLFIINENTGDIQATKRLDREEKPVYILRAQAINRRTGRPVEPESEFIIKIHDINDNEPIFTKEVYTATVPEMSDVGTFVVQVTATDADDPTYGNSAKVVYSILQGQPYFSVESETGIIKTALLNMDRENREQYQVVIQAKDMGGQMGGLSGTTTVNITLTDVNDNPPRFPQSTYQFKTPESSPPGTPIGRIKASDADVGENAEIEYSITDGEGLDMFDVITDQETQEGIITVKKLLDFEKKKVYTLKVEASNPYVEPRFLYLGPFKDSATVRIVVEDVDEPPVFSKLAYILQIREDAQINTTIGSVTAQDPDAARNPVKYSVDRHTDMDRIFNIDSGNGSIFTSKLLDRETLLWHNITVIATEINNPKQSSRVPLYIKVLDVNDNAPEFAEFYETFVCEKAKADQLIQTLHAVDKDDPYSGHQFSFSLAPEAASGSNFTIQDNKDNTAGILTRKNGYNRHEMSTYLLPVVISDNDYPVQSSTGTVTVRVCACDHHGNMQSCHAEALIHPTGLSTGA

[2] = target: T1, Fc-fused soluble cadherin-6 (extracellular domain of CDH6 fused to the Fc fragment of human IgG1) (human); assay: pull-down of Fc-cadherin with protein A/G agarose, immunoblot with anti-GRS
[3] = target: T2, cadherin-6 (CDH6), endogenous in cancer cell lines (HCT116, SN12, Caki-1) (human) (UniProt P55285); assay: biotinylated GRS on HCT116 cells with or without si-CDH6, western blot and flow cytometry
T2 sequence (looked up): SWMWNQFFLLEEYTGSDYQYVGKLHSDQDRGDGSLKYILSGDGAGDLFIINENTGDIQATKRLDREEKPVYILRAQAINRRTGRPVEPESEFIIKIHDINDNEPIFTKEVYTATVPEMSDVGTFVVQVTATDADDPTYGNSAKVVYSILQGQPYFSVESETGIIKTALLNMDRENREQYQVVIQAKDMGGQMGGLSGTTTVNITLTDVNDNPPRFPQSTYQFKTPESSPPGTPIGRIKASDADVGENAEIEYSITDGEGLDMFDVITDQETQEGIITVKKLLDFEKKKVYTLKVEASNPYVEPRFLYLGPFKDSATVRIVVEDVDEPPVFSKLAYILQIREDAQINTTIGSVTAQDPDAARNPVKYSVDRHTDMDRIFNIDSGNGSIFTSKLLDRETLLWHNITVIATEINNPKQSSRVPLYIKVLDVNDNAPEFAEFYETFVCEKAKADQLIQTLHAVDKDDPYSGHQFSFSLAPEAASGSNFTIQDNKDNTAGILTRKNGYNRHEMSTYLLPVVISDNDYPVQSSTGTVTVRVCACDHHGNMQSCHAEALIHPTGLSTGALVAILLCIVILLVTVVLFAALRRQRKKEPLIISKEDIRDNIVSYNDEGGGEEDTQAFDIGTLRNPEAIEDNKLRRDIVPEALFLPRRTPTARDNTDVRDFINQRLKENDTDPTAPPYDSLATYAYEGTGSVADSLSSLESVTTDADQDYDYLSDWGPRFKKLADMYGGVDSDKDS

[4] = target: T2, cadherin-6 (CDH6), endogenous in cancer cell lines (HCT116, SN12, Caki-1) (human); assay: biotin-GRS on SN12 cells, detected with streptavidin-HRP
[5] = target: T2, cadherin-6 (CDH6), endogenous in cancer cell lines (HCT116, SN12, Caki-1) (human); assay: cell binding: SN12 cells incubated with biotin-GRS, lysate blotted with streptavidin-HRP; the filing ties the binding to CDH6 by comparison with RENCA cells, which show no CDH6 band (Fig. 7C)

| binding [1] | binding [2] | binding [3] | binding [4] | binding [5] | Substance |
| --- | --- | --- | --- | --- | --- |
| binds | binds | – | – | – | His-tagged recombinant human glycyl-tRNA synthetase (GRS), 685 amino acids (enzyme) |
| – | – | binds | binds | binds | biotinylated recombinant human GRS (enzyme) |

No constants are given. Whether binding was seen depends on the method and setting. A result given as binding can be weak or reduced; the word gives no strength. For some assays here: Tags and fused reporters may be left off the sequences shown.
